Assay results reported in article PMC12147174, “PEX1^G843D remains functional in peroxisome biogenesis but is rapidly degraded by the proteasome” (The Journal of Biological Chemistry, 2025).
Results are given in words; binding and its absence hold for the method and conditions named. Binding seen in cells or lysates may run through a third protein. Here binding means that the protein was enriched with, or labelled near, the bait; the list need not be complete. Tags and fused reporters may be left off the sequences shown.

T1: FLAG-PEX1^WT (human PEX1, N-terminal FLAG knock-in) (human (endogenous in HCT116)) (UniProt O43933)
T1 sequence: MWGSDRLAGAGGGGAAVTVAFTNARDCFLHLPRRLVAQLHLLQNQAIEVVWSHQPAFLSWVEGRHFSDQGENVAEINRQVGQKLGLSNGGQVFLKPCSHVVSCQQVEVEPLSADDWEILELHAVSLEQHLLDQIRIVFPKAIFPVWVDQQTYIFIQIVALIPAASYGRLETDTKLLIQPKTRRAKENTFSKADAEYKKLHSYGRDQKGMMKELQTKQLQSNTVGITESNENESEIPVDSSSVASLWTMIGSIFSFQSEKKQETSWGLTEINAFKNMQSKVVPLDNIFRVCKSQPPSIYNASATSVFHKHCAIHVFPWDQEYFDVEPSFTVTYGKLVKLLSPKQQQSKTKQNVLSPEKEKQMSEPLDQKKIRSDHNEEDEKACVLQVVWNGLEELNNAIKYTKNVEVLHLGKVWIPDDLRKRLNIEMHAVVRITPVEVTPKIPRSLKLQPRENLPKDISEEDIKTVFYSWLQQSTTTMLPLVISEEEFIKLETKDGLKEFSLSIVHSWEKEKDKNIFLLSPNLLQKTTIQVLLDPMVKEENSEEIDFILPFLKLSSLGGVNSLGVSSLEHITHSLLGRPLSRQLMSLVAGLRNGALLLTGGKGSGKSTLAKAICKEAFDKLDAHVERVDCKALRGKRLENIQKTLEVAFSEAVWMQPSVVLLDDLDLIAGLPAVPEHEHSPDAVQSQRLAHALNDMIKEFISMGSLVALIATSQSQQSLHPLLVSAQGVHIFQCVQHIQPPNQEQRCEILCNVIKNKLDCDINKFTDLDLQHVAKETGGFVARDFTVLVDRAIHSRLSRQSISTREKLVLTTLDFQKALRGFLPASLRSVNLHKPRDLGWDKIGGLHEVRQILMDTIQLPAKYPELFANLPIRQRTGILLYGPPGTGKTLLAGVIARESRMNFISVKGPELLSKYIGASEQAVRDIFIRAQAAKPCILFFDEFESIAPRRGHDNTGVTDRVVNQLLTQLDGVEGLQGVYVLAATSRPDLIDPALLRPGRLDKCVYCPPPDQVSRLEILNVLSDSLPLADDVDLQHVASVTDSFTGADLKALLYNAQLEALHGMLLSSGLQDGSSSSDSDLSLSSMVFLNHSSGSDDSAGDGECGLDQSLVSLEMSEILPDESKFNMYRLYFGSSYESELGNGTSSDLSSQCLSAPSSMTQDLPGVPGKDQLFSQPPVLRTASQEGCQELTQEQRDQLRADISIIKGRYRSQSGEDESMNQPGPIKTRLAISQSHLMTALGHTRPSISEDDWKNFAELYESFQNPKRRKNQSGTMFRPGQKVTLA

B1: SPATA5 (human) (enzyme, UniProt Q8NB90 1-893)
chain: MSSKKNRKRLNQSAENGSSLPSAASSCAEARAPSAGSDFAATSGTLTVTNLLEKVDDKIPKTFQNSLIHLGLNTMKSANICIGRPVLLTSLNGKQEVYTAWPMAGFPGGKVGLSEMAQKNVGVRPGDAIQVQPLVGAVLQAEEMDVALSDKDMEINEEELTGCILRKLDGKIVLPGNFLYCTFYGRPYKLQVLRVKGADGMILGGPQSDSDTDAQRMAFEQSSMETSSLELSLQLSQLDLEDTQIPTSRSTPYKPIDDRITNKASDVLLDVTQSPGDGSGLMLEEVTGLKCNFESAREGNEQLTEEERLLKFSIGAKCNTDTFYFISSTTRVNFTEIDKNSKEQDNQFKVTYDMIGGLSSQLKAIREIIELPLKQPELFKSYGIPAPRGVLLYGPPGTGKTMIARAVANEVGAYVSVINGPEIISKFYGETEAKLRQIFAEATLRHPSIIFIDELDALCPKREGAQNEVEKRVVASLLTLMDGIGSEVSEGQVLVLGATNRPHALDAALRRPGRFDKEIEIGVPNAQDRLDILQKLLRRVPHLLTEAELLQLANSAHGYVGADLKVLCNEAGLCALRRILKKQPNLPDVKVAGLVKITLKDFLQAMNDIRPSAMREIAIDVPNVSWSDIGGLESIKLKLEQAVEWPLKHPESFIRMGIQPPKGVLLYGPPGCSKTMIAKALANESGLNFLAIKGPELMNKYVGESERAVRETFRKARAVAPSIIFFDELDALAVERGSSLGAGNVADRVLAQLLTEMDGIEQLKDVTILAATNRPDRIDKALMRPGRIDRIIYVPLPDAATRREIFKLQFHSMPVSNEVDLDELILQTDAYSGAEIVAVCREAALLALEEDIQANLIMKRHFTQALSTVTPRIPESLRRFYEDYQEKSGLHTL
B2: ATAD2 (human) (enzyme, UniProt Q6PL18 1-1390)
chain: MVVLRSSLELHNHSAASATGSLDLSSDFLSLEHIGRRRLRSAGAAQKKPAATTAKAGDGSSVKEVETYHRTRALRSLRKDAQNSSDSSFEKNVEITEQLANGRHFTRQLARQQADKKKEEHREDKVIPVTRSLRARNIVQSTEHLHEDNGDVEVRRSCRIRSRYSGVNQSMLFDKLITNTAEAVLQKMDDMKKMRRQRMRELEDLGVFNETEESNLNMYTRGKQKDIQRTDEETTDNQEGSVESSEEGEDQEHEDDGEDEDDEDDDDDDDDDDDDDDEDDEDEEDGEEENQKRYYLRQRKATVYYQAPLEKPRHQRKPNIFYSGPASPARPRYRLSSAGPRSPYCKRMNRRRHAIHSSDSTSSSSSEDEQHFERRRKRSRNRAINRCLPLNFRKDELKGIYKDRMKIGASLADVDPMQLDSSVRFDSVGGLSNHIAALKEMVVFPLLYPEVFEKFKIQPPRGCLFYGPPGTGKTLVARALANECSQGDKRVAFFMRKGADCLSKWVGESERQLRLLFDQAYQMRPSIIFFDEIDGLAPVRSSRQDQIHSSIVSTLLALMDGLDSRGEIVVIGATNRLDSIDPALRRPGRFDREFLFSLPDKEARKEILKIHTRDWNPKPLDTFLEELAENCVGYCGADIKSICAEAALCALRRRYPQIYTTSEKLQLDLSSINISAKDFEVAMQKMIPASQRAVTSPGQALSTVVKPLLQNTVDKILEALQRVFPHAEFRTNKTLDSDISCPLLESDLAYSDDDVPSVYENGLSQKSSHKAKDNFNFLHLNRNACYQPMSFRPRILIVGEPGFGQGSHLAPAVIHALEKFTVYTLDIPVLFGVSTTSPEETCAQVIREAKRTAPSIVYVPHIHVWWEIVGPTLKATFTTLLQNIPSFAPVLLLATSDKPHSALPEEVQELFIRDYGEIFNVQLPDKEERTKFFEDLILKQAAKPPISKKKAVLQALEVLPVAPPPEPRSLTAEEVKRLEEQEEDTFRELRIFLRNVTHRLAIDKRFRVFTKPVDPDEVPDYVTVIKQPMDLSSVISKIDLHKYLTVKDYLRDIDLICSNALEYNPDRDPGDRLIRHRACALRDTAYAIIKEELDEDFEQLCEEIQESRKKRGCSSSKYAPSYYHVMPKQNSTLVGDKRSDPEQNEKLKTPSTPVACSTPAQLKRKIRKKSNWYLGTIKKRRKISQAKDDSQNAIDHKIESDTEETQDTSVDHNETGNTGESSVEENEKQQNASESKLELRNNSNTCNIENELEDSRKTTACTELRDKIACNGDASSSQIIHISDENEGKEMCVLRMTRARRSQVEQQQLITVEKALAILSQPTPSLVVDHERLKNLLKTVVKKSQNYNIFQLENLYAVISQCIYRHRKDHDKTSLIQKMEQEVENFSCSR

Target: T1, FLAG-PEX1^WT (human PEX1, N-terminal FLAG knock-in) (human (endogenous in HCT116))
Assay: affinity purification with mass spectrometry; anti-FLAG M2 agarose eluates from HCT116 lysate (LB1 with ATPγS), TCA precipitated, trypsin, LC-MS/MS; total precursor intensity normalized to PEX1

| Binder | binding |
| --- | --- |
| B1 | binds |
| B2 | binds |
